US6380158B1, “Motilin homologs” (ZymoGenetics, Inc., priority 1997, dated 2002)
For at least one compound, name, drawing or mass did not settle the structure.

Test system: antral portion of the stomach
Test: Rat stomach contraction in vivo: topical application between two transducing crystals on the antrum
Parameters: species or system Sprague-Dawley rats
Conditions: 10 μl of 1 μM applied topically, anesthetized rats
From the text: Two male Sprague-Dawley rats, approximately 12 weeks old (Harlan, Indianapolis, Ind.) were anesthetized with urethane and their stomachs were exposed through a small abdominal incision. Two 2.4 mm transducing crystals (Sonometrics, Ontario, Canada) were placed on the antral portion of the stomach such that circular contractions could be monitored as a change in the distance between the two crystals. The crystals were attached with VETBOND TISSUE ADHESIVE (3M, St. Paul, Minn.).
The amplitude of the NE-induced decrease was approximately 50% of the acetylcholine-induced increase in distance. Both responses were transient.
A negative control of 10 μl of phosphate buffer solution (PBS) applied topically between the crystals had no effect.
A 14 amino acid zsig33 peptide (from amino acid residue 24 (Gly) to amino acid residue 37 (Gln) of SEQ ID NO: 2) was dissolved in PBS) and 10 μl was applied topically for a final concentration of 1 μg, 10 μg or 100 μg.

CC(=O)OCC[N+](C)(C)C [acetylcholine, reference compound]
change in the distance between the two crystals (circular contractions of the stomach): rapid, but transient increase in the distance between two crystals
